Source: PubChem BioAssay AID248 (DTP/NCI, 2004)
The list is a part of this screen's results and no random one: it covers a few groups of compounds. Other doses and runs of a compound may be missing. T/C is the treated group as % of the vehicle group. Some entries give survivors of the animals treated and no T/C: the source files T/C as zero there, which appears to mark a toxic dose or a test without result, not a measured value. Some survivor counts are full or nearly so, which does not show that the dose was tolerated: survival well below the control is almost never listed, so the zero probably covers shortened survival too. Survivors were counted at the toxicity check, usually on the fifth day, unless a day is given; later deaths do not show. Schedule codes are those of the source, taken here to give the interval after Q, in days (D) or hours (H), and the number of doses after X. Some schedules carry Z or #; the key to these is not given. For survival time, this PubChem deposit counts one and a half times the control or more as active, and values a quarter to a half above the control carry no call in these data; other NCI protocols may use other cut-offs. Some T/C values are followed by the survivors on the day toxicity was checked, most often the fifth; where neither a count nor a note follows, no animal had died by that day. Some entries hold several experiments; their values stand side by side, smallest first. Some complexes appear as separate parts, the way the source draws them; their charges need not add up.

Test system: L1210 leukemia ip in BDF1 mice, survival T/C
Test: NCI In Vivo Anticancer Drug Screen. Data for tumor model L1210 Leukemia (intraperitoneal) in B6D2F1 (BDF1) mice
Details: T/C endpoint: mean survival time, higher T/C = longer survival
[1] = dose: 100.0 mg/kg/injection, schedule: Q01DX001 (ip), vehicle: saline
[2] = dose: 200.0 mg/kg/injection, schedule: Q01DX001 (ip), vehicle: saline
[3] = dose: 400.0 mg/kg/injection, schedule: Q01DX001 (ip), vehicle: saline

N#CCCOP(=O)(O)N(CCCl)CCCl.NC1CCCCC1
T/C [1]: 111 % of control
T/C [2]: 106 % of control
T/C [3]: 121 % of control

O=C(OCCN1CCCCCCCC1)C(O)(c1ccccc1)c1ccccc1
T/C (dose: 100.0 mg/kg/injection, schedule: Q04DX002 (ip), vehicle: saline): 101 % of control
T/C (dose: 200.0 mg/kg/injection, schedule: Q04DX002 (ip), vehicle: saline): 89 % of control
T/C (dose: 400.0 mg/kg/injection, schedule: Q04DX002 (ip), vehicle: saline): 97 % of control

CCCCO[PH+](OCCCC)OCCCC.CCCCO[PH+](OCCCC)OCCCC.[C-]#[O+].[C-]#[O+].[C-]#[O+].[C-]#[O+].[Cr]
T/C (dose: 50.0 mg/kg/injection, schedule: Q01DX009 (ip), vehicle: acetone): 95 % of control
T/C (dose: 100.0 mg/kg/injection, schedule: Q01DX009 (ip), vehicle: acetone): 100 % of control
T/C (dose: 100.0 mg/kg/injection, schedule: Q04DX003 (ip), vehicle: acetone): 101 % of control
T/C (dose: 200.0 mg/kg/injection, schedule: Q01DX009 (ip), vehicle: acetone): 103 % of control
T/C (dose: 200.0 mg/kg/injection, schedule: Q04DX003 (ip), vehicle: acetone): 98 % of control
T/C (dose: 400.0 mg/kg/injection, schedule: Q04DX003 (ip), vehicle: acetone): 98 % of control

COP(O)OP(O)CC(C)=O (stereo not drawn)
T/C (dose: 75.0 mg/kg/injection, schedule: Q04DX002 (ip), vehicle: saline with Tween-80): 94 % of control
T/C (dose: 150.0 mg/kg/injection, schedule: Q04DX002 (ip), vehicle: saline with Tween-80): 94 % of control
T/C (dose: 300.0 mg/kg/injection, schedule: Q04DX002 (ip), vehicle: saline with Tween-80): 102 % of control

NC1CCCCC1.O=P(O)(N(CCCl)CCCl)N1CCCC1
survivor count (dose: 8.0 mg/kg/injection, schedule: Q01DX Z (ip), vehicle: other): 6 of 6
T/C (dose: 16.0 mg/kg/injection, schedule: Q01DX Z (ip), vehicle: other): 98 % of control
T/C (dose: 32.0 mg/kg/injection, schedule: Q01DX Z (ip), vehicle: other): 98 % of control
T/C (dose: 62.5 mg/kg/injection, schedule: Q01DX Z (ip), vehicle: saline): 98 % of control
T/C (dose: 64.0 mg/kg/injection, schedule: Q01DX Z (ip), vehicle: other): 117 % of control
T/C (dose: 125.0 mg/kg/injection, schedule: Q01DX Z (ip), vehicle: saline): 93 % of control
survivor count (dose: 250.0 mg/kg/injection, schedule: Q01DX Z (ip), vehicle: saline): 0 of 6
survivor count (dose: 500.0 mg/kg/injection, schedule: Q01DX Z (ip), vehicle: saline): 0 of 6

CCCC1OP(N)(=O)OCC1CC (stereo not drawn)
T/C (dose: 200.0 mg/kg/injection, schedule: Q01DX Z (ip), vehicle: saline): 97 % of control
T/C (dose: 300.0 mg/kg/injection, schedule: Q01DX Z (ip), vehicle: saline): 100 % of control
T/C (dose: 450.0 mg/kg/injection, schedule: Q01DX Z (ip), vehicle: saline): 111 % of control
T/C (dose: 675.0 mg/kg/injection, schedule: Q01DX Z (ip), vehicle: saline): 96 % of control

CC1CCOP(c2ccccc2)O1 (stereo not drawn)
T/C [1]: 96 % of control
T/C [2]: 96 % of control
T/C [3]: 102 % of control

CCOC(=O)COc1ccc(N(CCCl)CCCl)cc1
T/C (dose: 1.5 mg/kg/injection, schedule: Q01DX Z (ip), vehicle: methylcellulose (MC)): 111 % of control
T/C (dose: 2.3 mg/kg/injection, schedule: Q01DX Z (ip), vehicle: methylcellulose (MC)): 111 % of control
T/C (dose: 3.5 mg/kg/injection, schedule: Q01DX Z (ip), vehicle: methylcellulose (MC)): 101, 113, 137, 154 % of control
T/C (dose: 5.0 mg/kg/injection, schedule: Q01DX Z (ip), vehicle: methylcellulose (MC)): 103, 119, 127, 142 % of control
T/C (dose: 8.0 mg/kg/injection, schedule: Q01DX Z (ip), vehicle: methylcellulose (MC)): 129, 130, 140, 181 % of control
T/C (dose: 12.0 mg/kg/injection, schedule: Q01DX Z (ip), vehicle: methylcellulose (MC)): 120, 127 [5 of 6 alive], 151, 165 % of control
T/C (dose: 18.0 mg/kg/injection, schedule: Q01DX Z (ip), vehicle: methylcellulose (MC)): 125 % of control
T/C (dose: 27.0 mg/kg/injection, schedule: Q01DX Z (ip), vehicle: methylcellulose (MC)): 96 % of control
